Assay results: patent publication US20110092572A1
These are yes or no findings as the source states them, for the method shown. Some results given as binding are weak or reduced against the parent protein; the word gives no strength.

By UniProt entry, the sequences of proteins in these tests, tags left out. Residues count along the entry.
UniProt P01241, residues 27-217: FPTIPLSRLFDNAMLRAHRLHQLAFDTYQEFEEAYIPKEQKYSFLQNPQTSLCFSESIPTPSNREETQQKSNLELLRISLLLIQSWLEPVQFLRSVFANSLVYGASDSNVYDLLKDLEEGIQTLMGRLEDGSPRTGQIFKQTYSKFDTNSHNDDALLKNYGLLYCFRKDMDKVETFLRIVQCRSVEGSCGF

Molecular target: T1, growth hormone receptor (mouse liver microsomal membrane preparation) (mouse) (UniProt P16882)
T1 sequence (looked up): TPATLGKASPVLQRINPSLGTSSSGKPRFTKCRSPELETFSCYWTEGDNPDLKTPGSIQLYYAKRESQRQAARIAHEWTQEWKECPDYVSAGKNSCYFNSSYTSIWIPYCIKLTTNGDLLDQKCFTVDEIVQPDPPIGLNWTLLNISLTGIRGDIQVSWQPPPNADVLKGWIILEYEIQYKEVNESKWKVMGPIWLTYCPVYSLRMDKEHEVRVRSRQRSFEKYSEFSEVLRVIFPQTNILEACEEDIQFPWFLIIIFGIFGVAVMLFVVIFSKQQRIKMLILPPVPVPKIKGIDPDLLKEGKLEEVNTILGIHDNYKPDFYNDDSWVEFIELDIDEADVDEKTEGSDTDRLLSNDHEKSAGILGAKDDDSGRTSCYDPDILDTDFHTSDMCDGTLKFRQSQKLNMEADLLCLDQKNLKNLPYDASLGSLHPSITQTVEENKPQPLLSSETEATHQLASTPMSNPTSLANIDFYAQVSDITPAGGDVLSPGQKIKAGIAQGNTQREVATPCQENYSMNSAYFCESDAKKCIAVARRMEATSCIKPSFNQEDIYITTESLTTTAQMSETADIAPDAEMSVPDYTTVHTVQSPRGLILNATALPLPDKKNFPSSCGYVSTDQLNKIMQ
Test: [125I]-hGH specific binding to mouse liver microsomal membranes

“iodinated human growth hormone [125I] hGH (from UniProt P01241 27-217) (ligand)” was tested, and the binding was “binds”.
